{"sequences": {"note": "Protein sequences, listed by entry. Tags and fused reporters are not part of them. Residues count along the entry.", "UniProt P00347, 1-346 limits assumed": "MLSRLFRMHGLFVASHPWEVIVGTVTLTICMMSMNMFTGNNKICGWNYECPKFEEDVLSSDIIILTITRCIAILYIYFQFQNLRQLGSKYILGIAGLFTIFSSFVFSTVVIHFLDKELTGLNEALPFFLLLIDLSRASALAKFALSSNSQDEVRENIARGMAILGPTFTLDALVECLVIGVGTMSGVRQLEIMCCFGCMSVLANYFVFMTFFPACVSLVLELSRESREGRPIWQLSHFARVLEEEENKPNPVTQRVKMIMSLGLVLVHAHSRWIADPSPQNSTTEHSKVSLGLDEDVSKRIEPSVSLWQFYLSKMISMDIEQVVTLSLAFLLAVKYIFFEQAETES"}, "source": "paper PMC6277434", "about": "“Discovery of a potent HMG-CoA reductase degrader that eliminates statin-induced reductase accumulation and lowers cholesterol” (Nature Communications, 2018)", "target": "HMGCR (TM1-8)-GFP (Cricetulus griseus, UniProt P00347)", "assay": "HMGCR (TM1-8)-GFP fluorescent assay (high-content imaging) in CHG cells", "details": "7.8 uM, 16 h, DMSO-treated cells = 100", "note": "A number of entries come with more than one value. The list is limited to them. The source may hold further records. Results that share an entry differ, and nothing given here explains why; dose, time, organism, isomer or construct need not be as stated for each record.", "data": [{"smiles": "CC(C)CCC[C@@H](C)[C@H]1CC[C@@]2(C)C3=C(CC[C@]12C)[C@@]1(C)CC[C@H](O)C(C)(C)[C@@H]1CC3", "note": "[24,25-DHL, 24,25-dihydrolanosterol]", "values": [{"measurement": "HMGCR (TM1-8)-GFP fluorescent intensity, mean", "value": "25.7375 and 55.6471"}]}]}
